For this series, the system named is Tg(Dyrk1a) mice brain phosphoproteins. Description: Brain phosphoproteomic analysis, Tg(Dyrk1a) mice. The class given is in vivo, mouse. The conditions noted are these: 20 mg/kg daily i.p. 19 days. The source says:
All tissue samples were processed for phosphoproteomics analysis based on the enrichment and separation of proteotypic phosphopeptides with HILIC (see Materials and Methods). In Tg(Dyrk1a) and Ts65Dn mice, the hippocampus, cortex and cerebellum yielded 1384, 1523 and 2004 peptides, respectively, corresponding to 886, 948 and 1229 proteins (Table 1; Tables S1-S13).
Only biological processes common to the three brain regions and both models are presented (complete biological processes are listed in Tables S11-S13).
DYRK1A substrates and their respective phosphorylation sites were identified in the phosphoproteome based on the DYRK1A phosphorylation consensus sequence R-P-x(1,3)-S/T-P ([Himpel et al., 2000]). Protein-protein interactions of each substrate were generated with STRING web server application. Biological process enrichments of each cluster were assessed by using ToppCluster web server application. Phospho-network was mapped with the Cytoscape tool. See Supplementary Materials and Methods for details. […]
emitters (FS360-20- 10-D-20 -C7, New Objective, Woburn, MA, USA). Gaseous phase transition of the peptides was performed with positive ion electrospray ionization applying a voltage of 2.5 kV. […]
Protein Identification and Quantification. […]
Precursor Mass Tolerance 10 ppm, Fragment Mass Tolerance 20 mmu, Dynamic Modifications were Oxidation of M (+15.995 Da), Deamidation of N, Q (+0.984 Da), Phosphorylation of S (+79.966 Da) and Static Modifications were iTRAQ8plex at any N-Terminus, K, Y (+304.205 Da) and Methylthio at C (+45.988 Da). […] The Reporter Ion Quantifier node included a custom iTRAQ 8plex (Thermo Scientific Instruments) Quantification Method, integration window tolerance of 10 ppm with Most Confident Centroid. […] Only uniquely occurring peptides were used for protein relative quantification and peptides with missing iTRAQ […]
Phosphoproteomics analysis results. A total of about 70 tryptic peptide fractions were analyzed from each brain region. […]

From article PMC6176987, “Correction of cognitive deficits in mouse models of Down syndrome by a pharmacological inhibitor of DYRK1A” (Disease Models & Mechanisms, 2018) come the findings set out here.

Each structure is given as a SMILES string.

For the compound `O=C1NC(Nc2ccccc2)=N/C1=C\c1ccc2c(c1)OCO2` [L41], the “Modulated proteins trisomic, L41 vs vehicle” value is, setting by setting: (Cerebellum) 344; (Cortex) 240; (Hippocampus) 267.
